# Structures can show the parent of a compound that is named as a salt. At least one structure is not confirmed: it was looked up by name or label, or the drawing left a doubt. Some compounds share one wording; it may come from a single statement.
# System: 5-HT1c receptor
# Assay: 5-HT1c receptor radioligand binding displacement assay ([3H]mesulergine, choroid plexus)
# Parameters: species or system beef
# Conditions: 5-HT1c versus 5-HT2, from Table II
row,SMILES,"5-HT1c selectivity (low IC50 in 5-HT1c assay, higher IC50 in 5-HT2 assay)"
1,"Cc1cc(Br)c2[nH]c3c(c2c1)CCNC3Cc1cccc2ccccc12 (racemic) [Example 7, (±) 6-methyl-8-bromo-1-(1-naphthalenylmethyl)-1,2,3,4-tetrahydro-9H-pyrido[3,4-b]indole]",particularly 5-HT1c selective
2,"Cc1ccc2[nH]c3c(c2c1F)CCNC3Cc1cccc2ccccc12 (racemic) [Example 13, (±) 5-fluoro-6-methyl-1-(1-naphthalenylmethyl)-1,2,3,4-tetrahydro-9H-pyrido[3,4-b]indole]",particularly 5-HT1c selective
3,"Cc1ccc2[nH]c3c(c2c1)CCNC3Cc1cccc2ccccc12 (racemic) [Example 5, (±) 6-methyl-1-(1-naphthalenylmethyl)-1,2,3,4-tetrahydro-9H-pyrido[3,4-b]indole hydrochloride]",particularly 5-HT1c selective
4,"Cc1ccc2c3c([nH]c2c1Br)C(Cc1cccc2ccccc12)NCC3 (racemic) [Example 10, (±) 7-methyl-8-bromo-1-(1-naphthalenylmethyl)-1,2,3,4-tetrahydro-9H-pyrido[3,4-b]indole hydrochloride]",particularly 5-HT1c selective
5,"CC(C)c1ccc2[nH]c3c(c2c1)CCNC3C(C)c1cccc2ccccc12 (racemic) [Example 4, hydrochloride]",particularly 5-HT1c selective

# System: 5-HT1c sites
# Assay: not given
# Conditions: in vitro; background; cited from earlier work
row,SMILES,affinity for 5-HT1c sites relative to other 5-HT receptors
1,"Clc1cccc(N2CCNCC2)c1 [m-CPP, m-chlorophenylpiperazine]",slightly higher affinity for the 5-HT1c sites than for other 5-HT receptors
